The source of these data is publication doi:10.1101/074989.

By UniProt entry, the sequences of proteins in these tests, tags left out.
UniProt P35631: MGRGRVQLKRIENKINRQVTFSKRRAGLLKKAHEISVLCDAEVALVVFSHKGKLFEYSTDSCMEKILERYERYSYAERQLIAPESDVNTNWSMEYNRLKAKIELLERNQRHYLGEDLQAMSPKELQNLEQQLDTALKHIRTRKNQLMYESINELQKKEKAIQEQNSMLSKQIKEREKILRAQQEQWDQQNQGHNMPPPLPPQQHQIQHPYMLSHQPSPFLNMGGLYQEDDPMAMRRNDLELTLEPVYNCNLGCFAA

Test [1] has as its target SHORT … PHASE (Arabidopsis thaliana) (Arabidopsis thaliana) (UniProt Q9FVC1). The experiment in a line: two-hybrid.
The target of test [2] is T1, AGL24 (Arabidopsis thaliana) (Arabidopsis thaliana) (UniProt O82794).
T1 sequence: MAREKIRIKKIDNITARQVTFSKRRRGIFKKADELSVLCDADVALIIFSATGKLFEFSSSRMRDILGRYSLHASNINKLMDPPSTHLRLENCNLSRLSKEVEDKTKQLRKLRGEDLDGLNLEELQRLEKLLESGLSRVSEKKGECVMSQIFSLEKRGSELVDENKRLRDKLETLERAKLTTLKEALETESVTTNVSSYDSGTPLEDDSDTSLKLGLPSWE
The experiment in a line: two-hybrid.

Results are given in words; binding and its absence hold for the method and conditions named. Some binding calls cover weakened binding; strength is not graded here.

For the sequence “APETALLA 1 (Arabidopsis thaliana) (from UniProt P35631 1-256)”, the binding result in test [1] and in test [2] was “binds” throughout.
